Results reported in patent US7169591B1, “Preparation of enantio-specific epoxides” (priority 1999, dated 2007).

Assay: Chiral GC of commercially available butadiene monoepoxide
Assay type: physicochemical

Question: Which results are given for `C=CC1CO1` (centres unmarked) [BME, 1,3-butadiene monoepoxide]?
Answer: R-enantiomer content of commercial product: 24%; S-enantiomer content of commercial product (+/−2%): 76%
